Results published in patent publication US6277829A, “Process for preparing of aqueous formulation for opthalmic use” (S.I.F.I. Societa Industria Farmaceutica Italiana S.p.A., priority 1999, dated 2001).
Several values for one entry are separate records, joined by “and”; a condition that tells them apart may be missing. Identical values can stand only once. Like-named read-outs stand apart in the source and are kept apart here.

Conditions: cornea, bioassay S. aureus ATCC 29213
Method: Twelve male white New Zealand rabbits (weighing 1.8-2.3 kg) have been randomly divided in three groups (consisting of four animals each).
I Group: three instillations (animals have been sacrificed 6 hours after the first dosing)
II Group: six instillations (animals have been sacrificed 12 hours after the first dosing)
III Group: six instillations (animals have been sacrificed 24 hours after the first dosing)
Aqueous humor has been drawn away with a 23-gauge needle attached to an insulin syringe of 1 ml. After enucleation the cornea has been excised at the limbus and removed from the eyeball. All specimens have been carefully weighed, then immediately frozen at -20° C. […] Each specimen has been ground and homogenized with 1 ml of PBS (2 min., 24,000 rpm). The suspension has been mixed with an equal volume of acetonitrile and stored at 0° C. After 1 hour, the samples have been centrifuged at 0° C. […] Aqueous humor has been directly mixed with acetonitrile before being centrifuged.

With `CC[C@H]1OC(=O)[C@H](C)[C@@H](O[C@H]2C[C@@](C)(OC)[C@@H](O)[C@H](C)O2)[C@H](C)[C@@H](O[C@@H]2O[C@H](C)C[C@H](N(C)C)[C@H]2O)[C@](C)(O)C[C@@H](C)CN(C)[C@H](C)[C@@H](O)[C@]1(C)O` [azithromycin] the “Zone (inhibition zone)” value (3 instillations, after 6 hours) was 10.00 mm and the “Zone (inhibition zone)” value (6 instillations, after 24 hours) was 11.75 mm and 11.00 mm and 10.50 mm.
